Assay results: patent publication US20230127559A1, “PEPTIDE ANALOGS AND USE OF SAME IN TREATING DISEASES, DISORDERS OR CONDITIONS ASSOCIATED WITH MUTANT P53 PROTEIN” (YEDA RESEARCH AND DEVELOPMENT CO. LTD., priority 2020, published 2023)
Some results were stated once for a whole list of compounds, not compound by compound. Where a SMILES comes first, the peptide text is derived from it. Bridges are numbered along the chain shown (N, C = ends). [ ]: non-standard residue; d: D form. The star is where a group is joined. Stearoyl = CCCCCCCCCCCCCCCCCC(=O)*; Dab = NCC[C@H](N)C(=O)O

Test system: panel of cell lines expressing mutp53
Type: cell-based
Protocol: Cells were cultured in 96 wells plates with 2500-4000 cells/well. Serial dilutions of different peptides were added and the plates incubated for additional 48 h at 37° C. Then medium was removed and cell viability was determined by staining the cells with crystal violet (0.05%) in methanol/PBS (1:5, v/v), for 10 min, followed by 3 washes with PBS. 10% acetic acid was added to each well for 10 min. OD was determined at 595 nm.
The IC50 tables presented in FIGS. 17-20 are from several representative experiments performed on cell lines expressing several p53 hotspot mutations, as well as control non-transformed cells:
Proline residue position—Based on alanine scanning and molecular dynamics analyses, it is believed that the proline residue at the 6th position from the N-terminal is critical for the peptide's 3D structure and provides some rigidity required for peptide binding and activity. Therefore, it was hypothesized that a change in orientation or tetrahedral angle might increase the affinity of the peptide for p53. Six new peptides were synthesized replacing this proline residue with proline analogs (pCAPs 708-712, and pCAP-716, SEQ ID NOS: 6-10 and 14, respectively). This set of peptides was tested for activity on a panel of cell lines expressing mutp53, and compared it to pCAP-674 (SEQ ID NO: 27) and to the scrambled sequence peptides pCAP-721 (SEQ ID NO: 19) and pCAP-722 (SEQ ID NO: 20).

Row | Compound | increase in activity over pCAP-717 (FIGS. 18-20) | increase in activity over the original pCAP-553 (FIGS. 18-20) | IC50 (range across tested mutp53 cell lines, read-out: IC50 values, range over cell lines) [nM]
1 | CCCCCCCCCCCCCCCCCC(=O)N[C@@H](CCCNC(=N)N)C(=O)N[C@@H](CCCNC(=N)N)C(=O)N[C@@H](Cc1c[nH]cn1)C(=O)N[C@@H](CO)C(=O)N[C@H]1CCCCNC(=O)[C@H](CC(=O)O)NC(=O)[C@@H]2CCCN2C(=O)[C@H](CCN)NC(=O)[C@@H]2CCCN2C1=O [pCAP-713, str-RRHSKP(Dab)PD-Cyc] (Stearoyl-RRHSKP[Dab]PD; lactam 5-C) | 1.5-3 folds | – | –
2 | CCCCCCCCCCCCCCCCCC(=O)N[C@@H](CCCNC(=N)N)C(=O)N[C@@H](CCCNC(=N)N)C(=O)N[C@@H](Cc1c[nH]cn1)C(=O)N[C@@H](CO)C(=O)N[C@@H]1CCCCNC(=O)[C@H](CC(=O)O)NC(=O)[C@@H]2CCCN2C(=O)[C@H](CCN)NC(=O)[C@H]2CCCN2C1=O [pCAP-724, str-RRHSkp(Dab)PD-Cyc] (Stearoyl-RRHS[dK][dP][Dab]PD; lactam 5-C) | 1.5-3 folds | 4-10 folds | –
3 | str-RRHSv(Dmp)(Dab)PD-NH2 [pCAP-716, Dmp—Di-methyl proline] | – | – | 120 to 1300
